The text below walks through data of paper PMC10675959.

Chains of the proteins cited; added tags and fusions are not shown.
UniProt P17677: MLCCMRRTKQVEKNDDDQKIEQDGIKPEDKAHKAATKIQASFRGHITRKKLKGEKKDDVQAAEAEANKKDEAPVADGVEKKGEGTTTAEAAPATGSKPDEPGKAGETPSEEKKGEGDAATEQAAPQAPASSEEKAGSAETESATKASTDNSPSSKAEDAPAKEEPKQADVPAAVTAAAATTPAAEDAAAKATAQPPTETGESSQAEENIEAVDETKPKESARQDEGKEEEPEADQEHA
UniProt Q14258: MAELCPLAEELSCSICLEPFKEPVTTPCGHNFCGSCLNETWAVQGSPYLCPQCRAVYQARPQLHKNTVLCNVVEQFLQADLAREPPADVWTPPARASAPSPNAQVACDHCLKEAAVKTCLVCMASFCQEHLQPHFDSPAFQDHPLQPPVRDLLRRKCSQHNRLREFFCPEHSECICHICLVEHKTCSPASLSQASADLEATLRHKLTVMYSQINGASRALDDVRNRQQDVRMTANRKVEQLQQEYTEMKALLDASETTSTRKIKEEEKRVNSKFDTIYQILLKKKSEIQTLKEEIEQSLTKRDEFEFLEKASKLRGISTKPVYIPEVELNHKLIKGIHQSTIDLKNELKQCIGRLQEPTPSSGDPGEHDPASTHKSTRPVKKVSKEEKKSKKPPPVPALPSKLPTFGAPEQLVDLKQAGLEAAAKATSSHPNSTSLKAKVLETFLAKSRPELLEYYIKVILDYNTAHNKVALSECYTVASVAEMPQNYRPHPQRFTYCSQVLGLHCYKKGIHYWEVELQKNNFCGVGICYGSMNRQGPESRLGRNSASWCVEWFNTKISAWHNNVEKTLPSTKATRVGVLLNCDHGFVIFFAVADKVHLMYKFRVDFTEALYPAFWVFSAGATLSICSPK

In the assay the target is growth-associated protein 43 (human (endogenous in umbilical cord MSCs)) (UniProt P17677). Description: affinity purification with mass spectrometry; GAP43 immunoprecipitate from MSC lysate analysed by LC-MS/MS; the discussion says MSCs transfected with HIF-1α siRNA.

These are yes or no findings as the source states them, for the method shown. In cells and extracts the contact can be indirect. A yes stands for co-enrichment or nearness to the bait. Other partners may have been found.

“tripartite motif-containing protein 25 (from UniProt Q14258 1-630) (enzyme)”: the binding entry is given as “binds”.
